According to PMC3519679:
Results are given in words; binding and its absence hold for the method and conditions named. Some results given as binding are weak or reduced against the parent protein; the word gives no strength. Where a sequence is shown, tags or fusion partners need not be part of it.

Protein sequences, listed by entry. Tags and fused reporters are not part of them. Lines headed by an entry give the natural chain unless they say otherwise; changes in a name come on top.
UniProt Q9SV55: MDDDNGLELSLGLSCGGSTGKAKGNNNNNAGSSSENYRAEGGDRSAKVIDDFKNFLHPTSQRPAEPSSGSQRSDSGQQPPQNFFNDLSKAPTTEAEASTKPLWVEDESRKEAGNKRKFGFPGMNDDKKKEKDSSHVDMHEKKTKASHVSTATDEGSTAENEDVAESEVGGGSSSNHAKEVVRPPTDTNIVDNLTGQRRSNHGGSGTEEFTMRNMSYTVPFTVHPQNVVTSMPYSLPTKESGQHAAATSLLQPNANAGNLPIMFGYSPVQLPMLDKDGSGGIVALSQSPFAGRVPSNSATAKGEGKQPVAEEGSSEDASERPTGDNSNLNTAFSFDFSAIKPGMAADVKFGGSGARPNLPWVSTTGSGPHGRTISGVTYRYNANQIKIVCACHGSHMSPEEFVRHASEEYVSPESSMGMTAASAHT

Target: T1, jasmonate ZIM-domain protein 3 (JAZ3), prey fusion (Arabidopsis thaliana) (UniProt Q9LVI4)
T1 sequence: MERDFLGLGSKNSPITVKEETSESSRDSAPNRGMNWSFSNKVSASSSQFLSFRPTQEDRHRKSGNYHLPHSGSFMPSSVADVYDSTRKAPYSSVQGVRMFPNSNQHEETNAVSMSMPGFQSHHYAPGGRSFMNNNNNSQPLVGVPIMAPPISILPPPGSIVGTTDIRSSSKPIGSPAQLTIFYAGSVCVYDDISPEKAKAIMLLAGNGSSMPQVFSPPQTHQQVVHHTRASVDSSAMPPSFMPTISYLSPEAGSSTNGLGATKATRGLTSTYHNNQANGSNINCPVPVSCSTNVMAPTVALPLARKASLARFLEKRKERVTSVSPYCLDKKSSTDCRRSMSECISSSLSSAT
Assay: yeast three-hybrid; Y3H in yeast strain PJ69-4a; NINJA:NLS-FLAG-HIS co-expressed from pMG426 under the GPD promoter as bridging protein with the pGBKT7 and pGADT7 fusions; growth on selective SD-His-Leu-Trp-Ura medium

NINJA:NLS-FLAG-HIS expressed from pMG426 (bridging protein of the Y3H) (from UniProt Q9SV55 1-425)
binding: binds
